# Reference: US20050222039A1, “Animal treatment” (priority 2001, published 2005)
# For at least one compound, name, drawing or mass did not settle the structure.
# Key:
# ewes = conditions: cited from earlier work
# Romney ewes = experiment: Trial 2: bromocriptine treatment of winter-lambing Romney ewes (plasma prolactin, wool growth, lambs); format: in vivo, sheep
# Method: Natural and experimental changes in plasma prolactin concentration and their effects on wool production in winter-lambing Romney ewes were measured.
# Fourteen non-pregnant and 29 pregnant ewes were maintained indoors from early April 1995 for 12 months under controlled photoperiod and controlled dietary intake. Two groups (n=8) were held under long day photoperiod (16L:8D; LD non-pregnant and LD-lambed) while 2 others were exposed to natural photoperiod (ND non-pregnant, n=6 and ND-lambed, n=7). Two further groups (n=7) of pregnant ewes housed in natural days were treated with bromocriptine, either from 1 week before parturition (ND-BrB) or 1-3 days after parturition (ND-BrA), to suppress prolactin secretion.
# Lambing occurred between 12 and 18 June. Plasma prolactin, mean fibre diameter and wool growth were measured at regular intervals and the results were plotted in FIG. 3.
# goats = conditions: periparturient prolactin surge abolished; cited from earlier work
# cows = conditions: cited from earlier work
structure (smiles),measurement,setting,value
CC(C)C[C@H]1C(=O)N2CCC[C@H]2[C@]2(O)O[C@](NC(=O)[C@@H]3C=C4c5cccc6[nH]c(Br)c(c56)C[C@H]4N(C)C3)(C(C)C)C(=O)N12 [bromocriptine],milk protein content,"ewes; bromocriptine treated ewes, first 4 weeks of lactation",increased
same,onset of lactation,"ewes; ewes, periparturient prolactin surge abolished",Failure or a delay in onset of lactation
same,plasma prolactin concentrations,"Romney ewes; ND-BrA group (bromocriptine 1-3 days after parturition), following the prolactin peak at parturition",low
same,plasma prolactin concentrations,"Romney ewes; ND-BrB group (bromocriptine from 1 week before parturition), throughout the trial",low
same,wool growth rate,Romney ewes; complete absence of the peripartum prolactin surge (ND-BrB),longer-term inhibitory effects
same,onset of lactation,goats,Failure or a delay in onset of lactation
same,immunoglobulin G1 in the milk,cows; bromocriptine to block the prolactin surge at calving,concentrates immunoglobulin G1 in the milk out past a week
same,onset of lactation,cows; periparturient prolactin surge abolished,Failure or a delay in onset of lactation
